Test results from patent US20120021995A1 (published 2012).
Where a chain is given by its changes, count along the chain named. Numbers in names are those of the source. No constants are given. Whether binding was seen depends on the method and setting. Some binding calls cover weakened binding; strength is not graded here. For some assays here: Tags and fused reporters may be left off the sequences shown.

Protein sequences, listed by entry. Tags and fused reporters are not part of them. Lines headed by an entry give the natural chain unless they say otherwise; changes in a name come on top.
UniProt O14763: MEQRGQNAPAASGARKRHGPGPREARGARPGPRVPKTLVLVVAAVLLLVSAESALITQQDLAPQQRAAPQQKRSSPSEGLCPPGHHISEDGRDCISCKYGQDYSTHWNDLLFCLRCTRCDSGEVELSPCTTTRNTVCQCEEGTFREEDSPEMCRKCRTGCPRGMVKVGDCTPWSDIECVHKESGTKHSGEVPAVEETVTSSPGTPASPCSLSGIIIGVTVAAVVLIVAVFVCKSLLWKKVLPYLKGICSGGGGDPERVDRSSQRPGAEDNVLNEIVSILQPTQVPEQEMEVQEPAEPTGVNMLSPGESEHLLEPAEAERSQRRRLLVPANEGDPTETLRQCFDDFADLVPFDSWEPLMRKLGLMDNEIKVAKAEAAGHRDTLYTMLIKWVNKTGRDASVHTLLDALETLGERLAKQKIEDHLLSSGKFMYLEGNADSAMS

B1: 29p61P1E11 (designed binder)
chain: EPPTQKPKKIVNAKKDVVNTKMFEELKSRLDTLAQEVALLKEQQALQTVCLKGTKVHMKCFLAFTQTKTFHEASEDCISRGGTLSTPQTGSENDALYEYLRQSVGNEAEIWLGLNGWLEGVGWVDMTGARIAYKNWETEITAQPDGGWPFSNENCAVLSGAANGKWFDKRCRDQLPYICQFGIV
notes: ATRIMER; also called 029-61.1E11
B2: 014-42.3D11 (designed binder)
chain: B1 chain with V121A, P149H, F150W, S151R, N152W
notes: ATRIMER
B3: 71p88P1B4 (designed binder)
chain: B1 chain with V121Y, W148A, P149E, F150R, S151A, N152W
B4: 014-42.3D10 (designed binder)
chain: B1 chain with W117Y, V121Y, W148A, P149T, F150I, S151A, N152W
notes: ATRIMER
B5: 029-15.A3C (designed binder)
chain: EPPTQKPKKIVNAKKDVVNTKMFEELKSRLDTLAQEVALLKEQQALQTVCLKGTKVHMKCFLAFTQTKTFHEASEDCISRGGTLSTPQTGSENDALYEYLRQSVGNEAEIWLGLNRATLRPRWVDMTGARIAYKNWETEITAQPDGGKNCAVLSGAANGKWFDKRCRDQLPYICQFGIV
notes: ATRIMER; also called 4a8c
B6: 029-15.B2H (designed binder)
chain: ALQTVCLKGTKVHMKCFLAFTQTKTFHEASEDCISRGGTLSTPQTGSENDALYEYLRQSVGNEAEIWLGLNRVLQRPVWVDMTGARIAYKNWETEITAQPDGGMVWSMENCAVLSGAANGKWFDKRCRDQLPYICQFGIV
B7: 029-15.B4D (designed binder)
chain: B6 chain with R72P, L74M, Q75R, R76G, P77V, V78T, M104R, V105S, S107V, M108W
B8: 029-15.A4E (designed binder)
chain: B6 chain with R72G, L74W, R76S, P77F, V78P, M104L, V105G, W106Y, S107L, M108R
B9: 029-15.B11F (designed binder)
chain: B6 chain with L74M, Q75R, P77R, V78E, G103A, M104Q, V105L, W106M, S107A, M108L
B10: 029-15.B3G (designed binder)
chain: B6 chain with L74I, Q75S, R76A, M104Q, V105Q, S107A
B11: 029-15.A6C (designed binder)
chain: B6 chain with L74V, Q75R, R76L, P77S, V78E, V105L, S107A
B12: 029-15.B12G (designed binder)
chain: B6 chain with Q75R, V78Q, D101N, M104D, V105W, W106R, S107I, M108P
B13: 029-15.B2B (designed binder)
chain: B6 chain with R72W, L74M, Q75R, V78L, M104S, V105M, W106G, S107W, M108R
B14: 029-15.A9B (designed binder)
chain: B6 chain with R72A, L74I, Q75R, V78L, V105K, W106Y, S107T
B15: 029-15.A8G (designed binder)
chain: EPPTQKPKKIVNAKKDVVNTKMFEELKSRLDTLAQEVALLKEQQALQTVCLKGTKVHMKCFLAFTQTKTFHEASEDCISRGGTLSTPQTGSENDALYEYLRQSVGNEAEIWLGLNRAWLRPRWVDMTGARIAYKNWETEITAQPDGGTLVSGENCAVLSGAANGKWFDKRCRDQLPYICQFGIV
notes: ATRIMER; also called 1a7b
B16: 029-15.B3D (designed binder)
chain: EPPTQKPKKIVNAKKDVVNTKMFEELKSRLDTLAQEVALLKEQQALQTVCLKGTKVHMKCFLAFTQTKTFHEASEDCISRGGTLSTPQTGSENDALYEYLRQSVGNEAEIWLGLNELRTDGLWVDMTGARIAYKNWETEITAQPDGGVMRRSENCAVLSGAANGKWFDKRCRDQLPYICQFGIV
notes: ATRIMER; also called 9b3d
B17: 029-15.B9F (designed binder)
chain: B16 chain with E116K, L117R, R118V, T119W, D120Y, G121R, L122G, V148M, M149R, S152R
notes: ATRIMER; also called 2a1a
B18: 029-15.A1H (designed binder)
chain: B15 chain with W118V, T148W, L149V, V150L, S151G, E153K
notes: ATRIMER; also called 8b6b
B19: 029-15.A4G (designed binder)
chain: ALQTVCLKGTKVHMKCFLAFTQTKTFHEASEDCISRGGTLSTPQTGSENDALYEYLRQSVGNEAEIWLGLNKRRWYGGWVDMTGARIAYKNWETEITAQPDGGVNTVRENCAVLSGAANGKWFDKRCRDQLPYICQFGIV
B20: 029-15.B1A (designed binder)
chain: B19 chain with K72G, R74L, W75K, Y76G, G77I, V104R, N105P, T106Q, V107W, R108G
B21: 029-15.A2E (designed binder)
chain: B19 chain with K72Q, R73L, R74V, W75T, Y76V, G78P, N105M, T106H, V107R, R108T
B22: 029-15.A7F (designed binder)
chain: B19 chain with K72Q, R73L, R74V, W75V, Y76Q, G77M, V104W, N105M, R108G
B23: 029-15.A11H (designed binder)
chain: B19 chain with K72H, R73I, R74F, W75I, Y76D, G77W, N105M, V107M, R108G
B24: 029-15.A8E (designed binder)
chain: B19 chain with K72W, R74S, W75M, Y76V, G77V, G78W, V104K, N105H, V107L, R108G
B25: 029-15.A7D (designed binder)
chain: ALQTVCLKGTKVHMKCFLAFTQTKTFHEASEDCISRGGTLSTPQTGSENDALYEYLRQSVGNEAEIWLGLNRAMLRSRWVDMTGARIAYKNWETEITAQPDGGRWFQGKNCAVLSGAANGKWFDKRCRDQLPYICQFGIV
B26: 029-15.B10A (designed binder)
chain: B6 chain with L74I, Q75R, P77S, V78M, M104Q, V105K, S107M, M108A
B27: 029-15.B4F (designed binder)
chain: B25 chain with A73V, L75R, S77V, R78L, W105R, F106E, Q107T, G108M
B28: 029-15.A6B (designed binder)
chain: B6 chain with L74M, Q75M, V78R, V105W, W106G, S107A
B29: 029-15.B12H (designed binder)
chain: B25 chain with A73V, M74Q, S77P, D101E, R104F, W105R, F106R, Q107H, G108A
B30: 029-15.A5A (designed binder)
chain: B25 chain with M74L, L75F, S77P, R104P, F106Y, Q107L, G108K, K109E
B31: 029-15.B11A (designed binder)
chain: B25 chain with R72V, M74I, L75R, R78V, R104E, W105R, F106A, Q107H, G108S, K109E
B32: 029-15.B3E (designed binder)
chain: B25 chain with R72H, A73L, M74V, L75S, R76L, S77A, R78P, R104G, W105M, F106H
B33: 029-15.B11C (designed binder)
chain: B25 chain with A73V, M74W, L75R, R78L, R104H, W105L, F106V, Q107K, G108Q
B34: 029-15.A9G (designed binder)
chain: B25 chain with A73V, L75R, S77P, R78L, W105G, F106Q, G108W, K109E
B35: 029-15.B3A (designed binder)
chain: ALQTVCLKGTKVHMKCFLAFTQTKTFHEASEDCISRGGTLSTPQTGSENDALYEYLRQSVGNEAEIWLGLNFRGWLRWWVDMTGARIAYKNWETEITAQPDDGARVLAENCAVLSGAANGKWFDKRCRDQLPYICQFGIV
B36: 029-15.B4H (designed binder)
chain: ALQTVCLKGTKVHMKCFLAFTQTKTFHEASEDCISRGGTLSTPQTGSENDALYEYLRQSVGNEAEIWLGLNELVTSRLWVDMTGARIAYKNWETEITAQPDGGVMQLGENCAVLSGAANGKWFDKRCRDQLPYICQFGIV
B37: 029-15.B11G (designed binder)
chain: B36 chain with V74G

molecular target: T1, recombinant human TRAIL R1 (DR4)/Fc chimera (human) (UniProt O00220); experiment: phage ELISA on DR4/Fc
T1 sequence: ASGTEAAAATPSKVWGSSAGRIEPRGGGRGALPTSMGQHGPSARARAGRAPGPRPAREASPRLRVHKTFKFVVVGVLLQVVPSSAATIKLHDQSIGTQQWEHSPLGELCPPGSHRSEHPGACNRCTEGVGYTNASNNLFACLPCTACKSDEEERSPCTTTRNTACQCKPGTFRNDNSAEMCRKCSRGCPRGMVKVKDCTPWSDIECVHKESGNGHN

binding, binds:
B1
B2
B3
B4

molecular target: recombinant human TRAIL R2 (DR5)/Fc chimera (human) (UniProt O14763); experiment: phage ELISA on DR5/Fc

binding, binds:
B5
B6
B7
B8
B9
B10
B11
B12
B13
B14
ACFPIMTLHCGGG [088-13.1H3]
B15
B16
B17
B18
B19
B20
B21
B22
B23
B24
B25
B26
B27
B28
B29
B30
B31
B32
B33
B34
B35
B36
B37
